In patent US9980937B2, “Therapeutic agent for Alzheimer's disease” (NAGASAKI UNIVERSITY, priority 2014, dated 2018):
At least one structure is not confirmed: it was looked up by name or label, or the drawing left a doubt. Some compounds share one wording; it may come from a single statement.

Tested on: neprilysin
Test: neprilysin activity staining of primary culture nerve cells
Assay type: cell-based
Details: mouse primary culture nerve cells, 48 hr; Minocycline 5 μM, Somatostatin and Harmine 1 μM, others 10 μM (FIG. 4C)
Procedure: This is a method of measuring the amount of neprilysin localized on the cell membrane surface by using cultured cells. Since Aβ is secreted extracellularly, the more neprilysin is present on the cell membrane, the more efficiently Aβ can be degraded and removed. The following procedure was performed according to a previous report (JP-A-2004-151079; Saito T., Iwata N., et al., Nat. Med. 11(4), 434-439, 2005).
Nerve cells prepared from mouse embryocerebral cortex and hippocampus were cultured and fixed, and reacted with a substrate. After completion of the reaction, aminopeptidase-phosphoramidon mixture and nitrosalicylaldehyde solution were sequentially added and reacted. […] More conveniently, it is also possible to observe positively stained images by using a FITC filter under a fluorescence microscope. When the substrate is degraded by neprilysin, an insoluble fluorescence reaction product is formed, and the site where neprilysin is present is visualized in yellow (pseudocolor and could be green). […]
The nerve cells prepared from mouse embryocerebral cortex and hippocampus were cultured, the following test compounds were individually added at a given concentration from day 7 to day 21 of culture, and further cultured for 48 hr. […] The stained images were quantified by an image analysis software (MetaMorph, ver. 7.7 (Universal Imaging Corporation, Downington, Pa.)) and studied. […]

Q: With `C[C@H](N)C(=O)NCC(=O)N[C@H]1CSSC[C@@H](C(=O)O)NC(=O)[C@H](CO)NC(=O)[C@H]([C@@H](C)O)NC(=O)[C@H](Cc2ccccc2)NC(=O)[C@H]([C@@H](C)O)NC(=O)[C@H](CCCCN)NC(=O)[C@H](Cc2c[nH]c3ccccc23)NC(=O)[C@H](Cc2ccccc2)NC(=O)[C@H](Cc2ccccc2)NC(=O)[C@H](CC(N)=O)NC(=O)[C@H](CCCCN)NC1=O` [Somatostatin] as the compound, how does the “neprilysin activity potentiating action (activity staining)” value read?
A: neprilysin activity potentiating action
